By UniProt entry, the sequences of proteins in these tests, tags left out. Residues count along the entry.
UniProt P07237, residues 18-508: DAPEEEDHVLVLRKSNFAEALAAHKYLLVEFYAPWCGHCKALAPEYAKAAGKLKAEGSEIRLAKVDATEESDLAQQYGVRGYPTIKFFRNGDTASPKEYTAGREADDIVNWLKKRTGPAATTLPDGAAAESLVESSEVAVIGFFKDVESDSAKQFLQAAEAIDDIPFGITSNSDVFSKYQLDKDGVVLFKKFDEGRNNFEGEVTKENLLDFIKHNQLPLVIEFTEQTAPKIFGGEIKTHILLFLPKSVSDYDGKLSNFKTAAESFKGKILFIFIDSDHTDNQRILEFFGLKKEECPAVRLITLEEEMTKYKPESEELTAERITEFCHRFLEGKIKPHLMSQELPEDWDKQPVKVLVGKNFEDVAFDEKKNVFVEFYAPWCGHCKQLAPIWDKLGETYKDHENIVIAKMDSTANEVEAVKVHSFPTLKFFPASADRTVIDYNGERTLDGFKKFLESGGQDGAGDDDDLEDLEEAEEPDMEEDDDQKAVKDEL
UniProt P30101, residues 25-505: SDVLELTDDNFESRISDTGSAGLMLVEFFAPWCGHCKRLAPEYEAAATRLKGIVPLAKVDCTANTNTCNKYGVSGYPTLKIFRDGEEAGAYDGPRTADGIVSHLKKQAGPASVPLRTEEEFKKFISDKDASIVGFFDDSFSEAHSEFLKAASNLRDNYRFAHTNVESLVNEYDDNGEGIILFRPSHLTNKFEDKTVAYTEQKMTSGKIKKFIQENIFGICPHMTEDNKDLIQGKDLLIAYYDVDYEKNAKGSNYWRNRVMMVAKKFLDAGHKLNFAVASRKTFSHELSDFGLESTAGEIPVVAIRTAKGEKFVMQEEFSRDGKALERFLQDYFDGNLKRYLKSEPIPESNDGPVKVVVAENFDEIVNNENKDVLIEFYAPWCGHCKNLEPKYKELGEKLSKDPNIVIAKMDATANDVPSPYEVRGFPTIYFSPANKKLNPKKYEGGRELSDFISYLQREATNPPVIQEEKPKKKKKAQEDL

According to article PMC11148063:

T1: human Fructosamine-3-kinase (HsFN3K), endogenous (human (endogenous in HepG2)) (UniProt Q9H479)
T1 sequence: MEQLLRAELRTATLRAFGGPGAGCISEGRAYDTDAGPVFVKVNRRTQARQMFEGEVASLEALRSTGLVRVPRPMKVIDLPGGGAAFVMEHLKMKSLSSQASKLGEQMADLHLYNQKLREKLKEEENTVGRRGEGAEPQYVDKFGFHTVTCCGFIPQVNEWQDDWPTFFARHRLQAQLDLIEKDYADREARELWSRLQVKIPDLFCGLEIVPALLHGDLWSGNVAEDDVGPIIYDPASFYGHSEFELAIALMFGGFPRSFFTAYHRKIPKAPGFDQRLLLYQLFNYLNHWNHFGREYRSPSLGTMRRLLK

B1: protein disulfide isomerase (PDI) family A member 4 (PDIA4) (enzyme, UniProt P13667 21-645)
chain: VAGAEGPDEDSSNRENAIEDEEEEEEEDDDEEEDDLEVKEENGVLVLNDANFDNFVADKDTVLLEFYAPWCGHCKQFAPEYEKIANILKDKDPPIPVAKIDATSASVLASRFDVSGYPTIKILKKGQAVDYEGSRTQEEIVAKVREVSQPDWTPPPEVTLVLTKENFDEVVNDADIILVEFYAPWCGHCKKLAPEYEKAAKELSKRSPPIPLAKVDATAETDLAKRFDVSGYPTLKIFRKGRPYDYNGPREKYGIVDYMIEQSGPPSKEILTLKQVQEFLKDGDDVIIIGVFKGESDPAYQQYQDAANNLREDYKFHHTFSTEIAKFLKVSQGQLVVMQPEKFQSKYEPRSHMMDVQGSTQDSAIKDFVLKYALPLVGHRKVSNDAKRYTRRPLVVVYYSVDFSFDYRAATQFWRSKVLEVAKDFPEYTFAIADEEDYAGEVKDLGLSESGEDVNAAILDESGKKFAMEPEEFDSDTLREFVTAFKKGKLKPVIKSQPVPKNNKGPVKVVVGKTFDSIVMDPKKDVLIEFYAPWCGHCKQLEPVYNSLAKKYKGQKGLVIAKMDATANDVPSDRYKVEGFPTIYFAPSGDKKNPVKFEGGDRDLEHLSKFIEEHATKLSRTKEEL
B2: protein disulfide isomerase (PDI) family A member 6 (PDIA6) (enzyme, UniProt Q15084 20-440)
chain: LYSSSDDVIELTPSNFNREVIQSDSLWLVEFYAPWCGHCQRLTPEWKKAATALKDVVKVGAVDADKHHSLGGQYGVQGFPTIKIFGSNKNRPEDYQGGRTGEAIVDAALSALRQLVKDRLGGRSGGYSSGKQGRSDSSSKKDVIELTDDSFDKNVLDSEDVWMVEFYAPWCGHCKNLEPEWAAAASEVKEQTKGKVKLAAVDATVNQVLASRYGIRGFPTIKIFQKGESPVDYDGGRTRSDIVSRALDLFSDNAPPPELLEIINEDIAKRTCEEHQLCVVAVLPHILDTGAAGRNSYLEVLLKLADKYKKKMWGWLWTEAGAQSELETALGIGGFGYPAMAAINARKMKFALLKGSFSEQGINEFLRELSFGRGSTAPVGGGAFPTIVEREPWDGRDGELPVEDDIDLSDVELDDLGKDEL

Each molecule was assayed against T1, human Fructosamine-3-kinase (HsFN3K), endogenous (human (endogenous in HepG2)) (assay: affinity purification with mass spectrometry; IP with rabbit polyclonal anti-FN3K antibody and protein A/G plus agarose beads from WT and FN3K KO HepG2 lysate (50 mM Tris-HCl pH 7.4, 150 mM NaCl, 1% Triton X-100, 1 mM EDTA, 10% glycerol), 4 C, 18 h; LC-MS/MS; hits: only in WT or LFQ ratio WT/KO > 1.5).

binding, binds:
prolyl 4-hydroxylase subunit beta (P4HB aka PDIA1) (from UniProt P07237 18-508) (enzyme), protein disulfide isomerase (PDI) family A member 3 (PDIA3) (from UniProt P30101 25-505) (enzyme), B1, B2

No constants are given. Whether binding was seen depends on the method and setting. Binding seen in cells or lysates may run through a third protein. A yes stands for co-enrichment or nearness to the bait. Other partners may have been found.
